From PubChem BioAssay AID2685 (National Center for Advancing Translational Sciences (NCATS), 2010) come the findings set out here.

As a reminder, the AC50 is the concentration at which the activity in the assay is half-maximal.

The nature of this test: qHTS Assay for Lipid Storage Modulators in Drosophila S3 Cells.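 As to cell number change: cells counted by Cell Tracker Red CMTPX staining in the red channel.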 The following applies: BODIPY lipid droplet fluorescence, 18-24 h; for cell number change: measured here: cell count max response, cells fed with added oleic acid. Put shortly: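 Drosophila S3 cells loaded with oleic acid (400 uM, as added) and compounds at several concentrations; lipid droplets imaged by 488-nm laser-scanning cytometry, 500–530 nm intensity and object ratio to cell channel. Percent activity normalized to 20 uM Triacsin C.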
A general note: In qHTS, concentration-response curves come from the screen itself.

[1] abbreviates: measured here: cell number channel AC50, cells fed with added oleic acid.
The mark [2] stands for this setting: measured here: lipid fluorescence (Fed channel) AC50, cells fed with added oleic acid.

The list shows a part of the results. Further columns of the screen follow, without active or inactive calls. The list favours compounds with an active or inconclusive main result. The note in brackets gives the kind of curve behind each potency; many fits are weak.

For `COc1cc(/C=C/C(=O)O)cc(S(=O)(=O)Nc2ccccc2SC)c1OC`, the cell number change is -35.1%. In addition, the AC50 under setting [1] is 2.91 µM [falling, full curve].
As to `COc1ccccc1CNC(=O)Nc1cccs1`, the cell number change was determined as 49.6%. Moreover, the AC50 under setting [1] is 9.2 µM [rising, partial curve]. Further, under setting [2], the AC50 was 13 µM [rising, partial curve].
Regarding `O=C(Nc1c(C(=O)NCc2ccco2)cnn1-c1ccccc1)c1ccc(F)cc1`, under setting [1], the AC50 was 2.31 µM [rising, partial curve].
As to `CN1CCN(CC(=O)Nc2cc(N3CCOCC3)ccc2[N+](=O)[O-])CC1`, the cell number change is -0.422%. Further, the AC50 under setting [2] is 32.6 µM [falling, single point].
On to `CC(C)n1cc(CN2CCC(Oc3ccc(C(=O)N4CCCC4)cc3)CC2)cn1`, for which the cell number change was -21.3%. Moreover, the AC50 under setting [1] is 0.259 µM [rising, single point]. The AC50 under setting [2] is 29.1 µM [rising, partial curve, poor fit].
As for `COc1ccc(C(=O)Nc2ccc(NC(=O)c3cccc(OC)c3)cn2)cc1`, the cell number change was 4.05%. Under setting [2], the AC50 was 29.1 µM [falling, single point].
As for `N#C/C(=C(/O)COC(=O)c1ccccc1O)c1nc2ccccc2s1`, the cell number change is -4.62%. Further, the AC50 under setting [2] was 18.4 µM [falling, single point].
For `Fc1ccccc1Sc1ccccc1CNC1=NCCN1`, the cell number change is -31%. Moreover, the AC50 under setting [1] is 18.4 µM [falling, single point]. Also, the AC50 under setting [2] was 29.1 µM [falling, single point].
In the case of `CCOc1ccc(N=C(NN)c2ccc3ccccc3n2)cc1`, the cell number change came to 24.1%. In addition, under setting [2], the AC50 is 0.259 µM [rising, full curve, poor fit].
Consider `O=C(CCCN1CCOCC1)c1ccc2c(c1)OCCO2`, for which the cell number change is -4.55%.
`Cc1cc(C)nc(OC(C(=O)O)C(OCCc2ccccc2)(c2ccccc2)c2ccccc2)n1` (stereo unspecified): the cell number change was -40.9%. Also, the AC50 under setting [1] was 20.6 µM [falling, single point]. Under setting [2], the AC50 is 0.291 µM [falling, full curve].
For `S=C(NCCN1CCOCC1)Nc1ccc(Cl)cc1Cl`, the cell number change was 4.24%. The AC50 under setting [2] is 6.51 µM [rising, partial curve, poor fit].
Regarding `CCOC(=O)CCc1c(C)c2ccc(OCC(=O)OC(C)C)cc2oc1=O`, the cell number change was -30.6%. Under setting [1], the AC50 is 3.66 µM [falling, full curve]. Besides, under setting [2], the AC50 is 25.9 µM [rising, single point].
Consider `Cc1cc(NC(=O)CSc2ccccn2)cc(NC(=O)CSc2ccccn2)c1`, for which the cell number change amounted to 4.76%.
With `CCOc1ccc(S(=O)(=O)N(CC(=O)NC2CCCCC2C)Cc2ccco2)cc1` (stereo unspecified), the cell number change is -7.54%. In addition, under setting [2], the AC50 is 20.6 µM [falling, partial curve, poor fit].
`C=C(C)c1cccc(C(C)(C)NC(=O)Nc2ccc(C)cn2)c1`: the cell number change is -26%. Also, the AC50 under setting [2] is 29.1 µM [falling, single point].
Consider `C/C(=N\NC(=S)NCCc1ccccc1)c1cccs1`, for which the cell number change was -33.3%. Moreover, under setting [1], the AC50 was 0.731 µM [falling, full curve].
With `CC(C)Cc1nnc(NC(=O)CN2C(=O)C3CCCCC3C2=O)s1` (stereo unspecified), the cell number change is -50%. Further, the AC50 under setting [2] is 0.146 µM [falling, partial curve, poor fit].
Consider `O=C(NCCC1=CCCCC1)C1CCN(S(=O)(=O)c2cccc3cccnc23)CC1`, for which the cell number change worked out at 39.9%. For the same molecule, the AC50 under setting [1] was 10.3 µM [rising, single point]. For the same molecule, under setting [2], the AC50 is 23.1 µM [rising, partial curve].
Regarding `COc1cccc(C(=O)CSc2nnc(-c3ccco3)n2CC2CCCO2)c1` (stereo unspecified), the cell number change is 20%. Also, the AC50 under setting [2] was 20.6 µM [rising, single point].
Consider `COc1cccc(-c2cc(C(=O)NCc3ccco3)no2)c1`, for which the cell number change is -17.8%.
As for `COc1ccc(-n2nc(C(=O)O)c3ccccc3c2=O)c(OC)c1`, the cell number change was -21.9%. In addition, the AC50 under setting [2] is 29.1 µM [falling, single point].
For the molecule `CCC(=O)Nc1ccc2c(c1)nc(CCN1CCN(C)CC1)n2C`, the cell number change is -16.7%. In addition, under setting [2], the AC50 is 0.00461 µM [falling, full curve, poor fit].
As to `O=C(NCc1ccccc1)c1ccc(CS(=O)(=O)Cc2ccc(F)cc2)o1`, the cell number change is -32.9%. For the same molecule, under setting [1], the AC50 is 29.1 µM [falling, single point].
With `Cn1c(=O)n(Cc2ccc(F)cc2)c(=O)c2c1nc1n2CCCN1Cc1ccccc1`, the cell number change was -64%. Under setting [1], the AC50 was 1.64 µM [falling, partial curve, poor fit].
In the case of `O=C(c1ccco1)N1CCN(c2c(-c3ccccc3)c3cc(Cl)ccc3[nH]c2=O)CC1`, the cell number change was -6.08%. Besides, the AC50 under setting [1] was 0.82 µM [rising, partial curve]. In addition, the AC50 under setting [2] was 0.0731 µM [rising, full curve, poor fit].
For the molecule `COc1ccc(-n2c(C)nc3cc(C(=O)NCc4ccco4)ccc32)cc1`, the cell number change came to 0.988%.
On to `CN=c1scc(-c2ccccc2F)n1/N=C/c1ccc(O)c(O)c1O`, for which the cell number change was -89.5%. Besides, the AC50 under setting [1] was 29.1 µM [falling, single point]. Further, the concentration at half-maximal activity (AC50) under setting [2] was 29.1 µM [falling, single point].
Take `Cc1c(Cl)cccc1NC(=O)CCCN1C(=O)CCC1=O`: the cell number change stood at 9.41%. Also, under setting [2], the AC50 is 0.517 µM [rising, full curve].
Consider `COc1cccc(NC(=O)c2sc(Cl)nc2C)c1`, for which the cell number change is -2.35%. Under setting [2], the AC50 was 2.31 µM [rising, partial curve].
As to `COC(=O)C1CC(O)CN1C(=O)c1ccco1` (stereo unspecified), the cell number change is -80.4%. Under setting [1], the half-maximal activity concentration (AC50) was 25.9 µM [falling, partial curve]. In addition, the AC50 under setting [2] is 3.26 µM [falling, single point].
As for `NC(=O)c1ccsc1NC(=O)COC(=O)c1ccc([N+](=O)[O-])o1`, the cell number change turned out to be 0.258%.
In the case of `COc1ccc(C2CC(C)(c3ccc(OC)cc3)Nc3ccccc3N2)cc1` (stereo unspecified), the cell number change was 7.68%. For the same molecule, the AC50 under setting [1] was 4.11 µM [rising, partial curve, poor fit].
In the case of `CCOC(=O)C(CO)(NC(C)=O)C(=O)OCC`, the cell number change is -7.75%. Further, under setting [2], the AC50 was 0.0651 µM [rising, full curve, poor fit].
In the case of `Cc1nnsc1C(=O)N1CCCC(Nc2ccc(F)c(F)c2)C1` (stereo unspecified), the cell number change came out at 0.85%.
For the molecule `COC(=O)c1cccc(NC(=O)CSc2nc(O)c(-c3ccccc3)c(=O)[nH]2)c1`, the cell number change came out at 163%. In addition, the AC50 under setting [1] was 13 µM [rising, partial curve].
Turning to `CCCN1C(=O)SC(CC(=O)Nc2ccc(Br)cc2)C1=O` (stereo unspecified), the AC50 under setting [2] is 3.26 µM [falling, partial curve].
`COc1ccc(N2CCN(C(=O)C(NC(=O)c3c(F)cccc3F)C(C)C)CC2)cc1` (stereo unspecified): the cell number change is -2.42%.
Same read-out and setting: under `C#CCOc1ccccc1C(N)=O` stands 3.31%.
For the molecule `COc1cc2c(cc1OC)C(c1ccc([N+](=O)[O-])cc1)NC(=O)C2` (stereo unspecified), the AC50 under setting [2] was 0.164 µM [falling, full curve, poor fit].
With `CCOc1ccccc1C(=O)OCC(=O)NCC1CCCO1` (stereo unspecified), the cell number change was -8.17%.
For the molecule `Cc1ccc2nc(NC(=O)C3CCN(S(=O)(=O)c4cccs4)CC3)sc2c1`, the cell number change stood at 13.8%. For the same molecule, the AC50 under setting [2] is 0.461 µM [falling, partial curve, poor fit].
In the case of `Cc1cc(C)cc(NC(=O)COc2coc(CN3CCc4ccccc43)cc2=O)c1`, the cell number change is 21.9%.
On to `CCCCN1C(=O)C2C(C(=O)Nc3cccc(OC)c3)C3C=CC2(O3)C1C(=O)NC1CCCCC1C` (stereo unspecified), for which the cell number change was -28%. The AC50 under setting [2] is 5.8 µM [falling, partial curve, poor fit].
For the molecule `CCc1c(C)nc2c(OC)cccc2c1Cl`, the cell number change is 33.2%. In addition, the AC50 under setting [1] was 6.51 µM [rising, partial curve]. Also, the AC50 under setting [2] is 16.4 µM [rising, single point].
Consider `Cc1ccc(CNC(=O)C(=O)c2cn(CC(=O)N3CCOCC3)c3ccccc23)cc1`, for which the cell number change was found to be 22.2%. The AC50 under setting [2] is 10.3 µM [rising, partial curve].
For the molecule `CCOC(=O)c1sc(N)c(C(=O)OCC)c1C`, the cell number change is 0.516%. For the same molecule, the half-maximal activity concentration (AC50) under setting [2] is 0.092 µM [rising, full curve, poor fit].
In the case of `COCCN1CN(S(=O)(=O)c2cccc(Cl)c2)c2nc3ccccc3nc21`, the AC50 under setting [2] was 2.59 µM [rising, partial curve, poor fit].
Take `COc1cc(OC)cc(C(=O)Nc2cc(C)nn2-c2ccccc2)c1`: the cell number change was -45.7%. Also, under setting [1], the concentration at half-maximal activity (AC50) was 7.31 µM [falling, partial curve].
With `O=C(NNC(=O)c1ccc2ncccc2c1)c1ccc(Cl)cc1`, the cell number change amounted to 15.4%.
As to `COC(=O)C1C(O)=C(C=NC2CCCCC2)C(=O)CC1(C)C` (stereo unspecified), the cell number change turned out to be 0.897%. Under setting [2], the AC50 was 29.1 µM [falling, single point].
Regarding `Nc1c(S(=O)(=O)c2cccs2)c2nc3ccccc3nc2n1CC1CCCO1` (stereo unspecified), the AC50 was 0.13 µM [rising, full curve, poor fit] under setting [1] and 0.731 µM [rising, full curve] under setting [2].
For `Cc1ccc(S(=O)(=O)c2cc(C#N)c(=O)[nH]c2N)cc1`, the cell number change came to 0.287%. Besides, under setting [2], the AC50 is 0.00517 µM [falling, full curve, poor fit].
On to `COc1cccc(N2CCN(CC(=O)NC(=O)NCc3ccco3)CC2)c1`, for which the cell number change came out at 9.91%.
Consider `CC(=O)Nc1ccc(S(=O)(=O)NC2CC(=O)N(c3ccc(C)cc3)C2)cc1` (stereo unspecified), for which the cell number change was 17.9%. Further, the AC50 under setting [2] is 18.4 µM [rising, single point].
As to `C/C(=N\NC(=S)Nc1ccc(C)cc1)c1cc2ccccc2o1`, the cell number change was -22.6%. Also, the AC50 under setting [2] is 2.06 µM [rising, partial curve].
Take `COc1ccc(C(=O)COC(=O)[C@H](C)Nc2ccc(C(F)(F)F)cc2[N+](=O)[O-])cc1`: the cell number change is -23.1%. Also, the AC50 under setting [1] is 0.00517 µM [falling, full curve, poor fit]. Also, under setting [2], the AC50 was 23.1 µM [falling, partial curve].
On to `CCCCn1c(=O)c(CC(C)=O)nc2ccccc21`, for which the cell number change worked out at 5.12%. Further, the AC50 under setting [2] was 3.66 µM [rising, partial curve].
As to `O=C(NCCN1CCCCCC1)C1CCCN1S(=O)(=O)c1cccc2nsnc12` (stereo unspecified), the cell number change was -3.6%. Besides, the AC50 under setting [2] is 0.164 µM [rising, full curve, poor fit].
Consider `Cc1c(CCOC(=O)c2cc([N+](=O)[O-])cc([N+](=O)[O-])c2)sc[n+]1CCCCS(=O)(=O)[O-]`, for which the cell number change was 24.6%. For the same molecule, under setting [2], the AC50 was 32.6 µM [rising, single point].
`Cc1ccc(C)c(NC(=O)c2cc3c([nH]c4ccccc43)c(C)n2)c1`: the cell number change was -16.1%.
